Reference: PubChem BioAssay AID330 (DTP/NCI, 2004)
The list does not hold the whole screen: it gathers some chemical classes. Other doses and runs of a compound may be missing. T/C: endpoint of the treated group in % of that of the vehicle group. Some doses have a count of surviving animals in place of a T/C: the source files T/C as zero there, which appears to mark a toxic dose or a test without result, not a measured value. Some doses without a T/C left all or most animals alive at the check, yet need not have been tolerated: the source hardly ever lists a survival T/C far under the control, and the zero likely stands for such cases as well. Counts of survivors are from the toxicity check (mostly the fifth day) where no day follows; animals may have died later. Schedule codes are those of the source, read here as Q, the interval in days (D) or hours (H), X, the number of doses. Where survival is the endpoint, the PubChem record calls one and a half times the control and up active, and a quarter to a half above the control has no call in these data; cut-offs in other NCI protocols can differ. Some entries were tested several times; their values stand side by side, smallest first. Some entries show no survivor count and are marked so; the dose need not have been tolerated. Additions like (4×) give the number of equal values in this list.

Test system: P388 leukemia ip, CD2F1 mice, survival T/C
Test: NCI In Vivo Anticancer Drug Screen. Data for tumor model P388 Leukemia (intraperitoneal) in CD2F1 (CDF1) mice
Settings: T/C endpoint: median survival time, higher T/C = longer survival
[1] = dose: 6.25 mg/kg/injection, schedule: Q01DX009 (ip), vehicle: saline
[2] = dose: 25.0 mg/kg/injection, schedule: Q01DX009 (ip), vehicle: saline
[3] = dose: 100.0 mg/kg/injection, schedule: Q04DX003 (ip), vehicle: Klucel (hydroxypropylcellulose) (HPC)
[4] = dose: 200.0 mg/kg/injection, schedule: Q04DX003 (ip), vehicle: Klucel (hydroxypropylcellulose) (HPC)
[5] = dose: 400.0 mg/kg/injection, schedule: Q04DX003 (ip), vehicle: Klucel (hydroxypropylcellulose) (HPC)

In the case of `CC1=CC(=O)C(N(CCCl)CCCl)=CC1=O`, the T/C (dose: 1.56 mg/kg/injection, schedule: Q01DX009 (ip), vehicle: Klucel (hydroxypropylcellulose) (HPC)) is reported as 148 % of control [survivor count not shown], the T/C (dose: 3.13 mg/kg/injection, schedule: Q01DX009 (ip), vehicle: Klucel (hydroxypropylcellulose) (HPC)) is reported as 157 % of control [survivor count not shown] and the T/C (dose: 6.25 mg/kg/injection, schedule: Q01DX009 (ip), vehicle: Klucel (hydroxypropylcellulose) (HPC)) is reported as 134 % of control [survivor count not shown].

For `CC(Cl)CNCC(C)Cl` (stereo not given), the T/C [1] was 100 % of control [survivor count not shown], the T/C [2] was 118 % of control [survivor count not shown] and the T/C (dose: 50.0 mg/kg/injection, schedule: Q01DX009 (ip), vehicle: saline) was 145 % of control [survivor count not shown].

For `CCCCC#CCN(CCCl)CCCl`, the T/C [1] was 155 % of control [survivor count not shown], the T/C (dose: 12.5 mg/kg/injection, schedule: Q01DX009 (ip), vehicle: saline) was 128 % of control [survivor count not shown] and the T/C [2] was 146 [survivor count not shown] and 166 % of control [survivor count not shown].

With `O=C(Cl)c1ccc(N(CCCl)CCCl)cc1` the T/C (dose: 100.0 mg/kg/injection, schedule: Q01DX001 (ip), vehicle: Klucel (hydroxypropylcellulose) (HPC)) was 100 % of control [survivor count not shown], the T/C (dose: 200.0 mg/kg/injection, schedule: Q01DX001 (ip), vehicle: Klucel (hydroxypropylcellulose) (HPC)) was 106 % of control [survivor count not shown] and the T/C (dose: 400.0 mg/kg/injection, schedule: Q01DX001 (ip), vehicle: Klucel (hydroxypropylcellulose) (HPC)) was 108 % of control [survivor count not shown].

`O=CC(O)C(O)C(O)C(O)CN(CCCl)CCCl` (stereo not given) was tested, and the T/C (dose: 0.62 mg/kg/injection, schedule: Q01DX005 (ip), vehicle: water) was 129 % of control, the T/C (dose: 1.25 mg/kg/injection, schedule: Q01DX005 (ip), vehicle: water) was 132 and 147 % of control and the T/C (dose: 2.5 mg/kg/injection, schedule: Q01DX005 (ip), vehicle: water) was 141 and 163 % of control. For the same compound, the T/C (dose: 5.0 mg/kg/injection, schedule: Q01DX005 (ip), vehicle: water) was 163 and 177 % of control, the survivor count (dose: 10.0 mg/kg/injection, schedule: Q01DX005 (ip), vehicle: water) was 5 of 5 and the survivor count (dose: 20.0 mg/kg/injection, schedule: Q01DX005 (ip), vehicle: water) was 5 of 5. For the same compound, the survivor count (dose: 40.0 mg/kg/injection, schedule: Q01DX005 (ip), vehicle: water) was 3 of 5.

In the case of `O=C1/C(=C/N(CCCl)CCCl)CSc2ccccc21`, the T/C [3] is reported as 106 % of control [survivor count not shown], the T/C [4] is reported as 100 % of control [survivor count not shown] and the T/C [5] is reported as 99 % of control [survivor count not shown].

In the case of `NC1CCCCC1.O=P(O)(NC1CCCCC1)N(CCCl)CCCl`, the T/C (dose: 50.0 mg/kg/injection, schedule: Q01DX009 (ip), vehicle: saline with Tween-80) is reported as 115 % of control [survivor count not shown], the T/C (dose: 100.0 mg/kg/injection, schedule: Q01DX009 (ip), vehicle: saline with Tween-80) is reported as 125 % of control [survivor count not shown] and the T/C (dose: 132.0 mg/kg/injection, schedule: Q01DX009 (ip), vehicle: saline) is reported as 95 % of control [survivor count not shown]. For the same compound, the T/C (dose: 200.0 mg/kg/injection, schedule: Q01DX009 (ip), vehicle: saline with Tween-80) was 150 % of control [survivor count not shown] and the T/C (dose: 200.0 mg/kg/injection, schedule: Q01DX009 (ip), vehicle: saline) was 100 % of control [survivor count not shown].

For `O=S=NN(CCCl)CCCl`, the T/C (dose: 8.5 mg/kg/injection, schedule: Q04DX003 (ip), vehicle: saline) was 140 % of control [survivor count not shown], the T/C (dose: 13.0 mg/kg/injection, schedule: Q04DX003 (ip), vehicle: saline) was 160 % of control [survivor count not shown] and the T/C (dose: 20.0 mg/kg/injection, schedule: Q04DX003 (ip), vehicle: saline) was 275 % of control [survivor count not shown].

With `ClCCN(CCCl)CCc1ccccc1` the T/C (dose: 2.0 mg/kg/injection, schedule: Q01DX009 (ip), vehicle: saline) was 145 % of control [survivor count not shown], the T/C (dose: 3.13 mg/kg/injection, schedule: Q01DX009 (ip), vehicle: saline) was 145 % of control [survivor count not shown] (2×) and the T/C (dose: 4.6 mg/kg/injection, schedule: Q01DX009 (ip), vehicle: saline) was 154 % of control [survivor count not shown]. For the same compound, the T/C (dose: 12.5 mg/kg/injection, schedule: Q04DX003 (ip), vehicle: saline with Tween-80) was 91 % of control [survivor count not shown].

`CC12CCC(/C(=C/N(CCCl)CCCl)C1=O)C2(C)C` (stereo not given) was tested, and the T/C [3] was 107 % of control [survivor count not shown], the T/C [4] was 105 % of control [survivor count not shown] and the T/C [5] was 106 % of control [survivor count not shown].

In the case of `O[C@@H](CNCCCl)[C@@H](O)CNCCCl`, the T/C (dose: 10.0 mg/kg/injection, schedule: Q01DX009 (ip), vehicle: saline sonified) is reported as 186 % of control [survivor count not shown], the T/C (dose: 20.0 mg/kg/injection, schedule: Q01DX009 (ip), vehicle: saline sonified) is reported as 254 % of control [survivor count not shown] and the T/C (dose: 26.4 mg/kg/injection, schedule: Q04DX003 (ip), vehicle: saline with Tween-80) is reported as 204 % of control [survivor count not shown]. The T/C (dose: 37.5 mg/kg/injection, schedule: Q04DX003 (ip), vehicle: saline) was 158 % of control [survivor count not shown], the T/C (dose: 40.0 mg/kg/injection, schedule: Q01DX009 (ip), vehicle: saline sonified) was 95 % of control [survivor count not shown] and the T/C (dose: 40.0 mg/kg/injection, schedule: Q04DX003 (ip), vehicle: saline with Tween-80) was 213 % of control [survivor count not shown]. The T/C (dose: 60.0 mg/kg/injection, schedule: Q04DX003 (ip), vehicle: saline with Tween-80) was 209 % of control [survivor count not shown].

In the case of `ClCCN(CCCl)C1CCOc2ccccc21` (stereo not given), the T/C (dose: 50.0 mg/kg/injection, schedule: Q04DX003 (ip), vehicle: Klucel (hydroxypropylcellulose) (HPC)) is reported as 254 % of control [survivor count not shown], the T/C [3] is reported as 172 % of control [survivor count not shown] and the T/C [4] is reported as 142 % of control [survivor count not shown].

`Cc1ccc2c(N(CCCl)CCCl)cc(C)nc2n1` was tested, and the T/C (dose: 50.0 mg/kg/injection, schedule: Q04DX003 (ip), vehicle: saline with Tween-80) was 103 % of control, the T/C (dose: 100.0 mg/kg/injection, schedule: Q04DX003 (ip), vehicle: saline with Tween-80) was 95 % of control and the survivor count (dose: 200.0 mg/kg/injection, schedule: Q04DX003 (ip), vehicle: saline with Tween-80) was 2 of 6.
